Primary screen of a compound library

From ChEMBL document CHEMBL3988442, “University of Dundee, Small-Polar-MMV Screening Library” (2021).

Values are the deposited “Percent Effect”, in %. The record does not define 0% and 100%; most values in the screen are far below 50% and negative numbers occur (in some assays of this library far below -100). The compounds are a random part of those screened. Two or more numbers in one place are separate tests of the same structure; such repeats can differ widely.

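Viability assay of Plasmodium falciparum sporozoites; the read-out is not stated. The concentration is filed as 10 mM, unlikely as a test dose, so the dose is not known. Higher reads as lower viability (inferred: compounds with an IC50 in retests scored well above the rest). Strong results were mostly tested again. About 34,000 compounds were tested under these conditions; 0.84% (about 280) showed 50% or more at least once.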

structure,effect
[H][C@@]12CCN(Cc3ccoc3)C[C@]1([H])[C@@H](CNC(=O)N(C)C)OC2,13.74
CN(C)S(=O)(=O)N1CCC2(COCc3cnc(-c4ccccc4)nc32)C1 (stereo not given),-6.602
Cc1cc(C)n(CC(C)NC(=O)C2(c3ccccc3F)CC2)n1 (stereo not given),3.547
CN(Cc1cc2c(cc1OC(F)F)OCO2)Cc1nccn1C,-2.768
O=C(NCc1ccc(Br)cc1)NCC1CCOC1 (stereo not given),6.912
CCSCCC(=O)NS(=O)(=O)c1ccc2c(c1)OCCO2,6.924
Cc1nn(C)c(C)c1CC(C)NC(=O)NCc1ccoc1C (stereo not given),6.476
CCn1nc(C)c(-c2cncn2CCN(C)C2CCCC2)c1C.Cl,-4.086
[H][C@@]12COC[C@]1(C(=O)NCCOC)CN(C1CCOCC1)C2,-2.129
CC(C)(C)n1ncc2c1CCCC2NCc1ccsc1 (stereo not given),82.25 and 82.56
Cc1cccc(-c2nc(C)nn2CN2CCN(S(C)(=O)=O)CC2)c1,-8.768
O=C(O)CCc1nc2nccc(C(F)(F)F)n2n1,2.01
Oc1cc(-c2cccs2)nc(C2CCCN(CC3=CCCOC3)C2)n1 (stereo not given),3.122
CC(=O)NCc1cncc(C2CCCN2C2CCOCC2)n1 (stereo not given),-9.882
Cc1ccc(CN(CCCn2ccnc2)Cc2cnn(C)c2)s1.O=C(O)CC(O)(CC(=O)O)C(=O)O,7.522
Cc1cc(CC(C)NC2CCN(CC(C)C)CC2)[nH]n1 (stereo not given),-10.62
Cc1ccnc(OCC(=O)N2CCC(C(N)=O)CC2)n1,-2.715
CC(C)c1nc(CN2CCCCC2)cs1,-9.017
COc1cc(CCC(=O)NC(C)C(=O)O)ccc1OCC(F)(F)F (stereo not given),-11.4
O=C(c1cccc2c1OCO2)N1CCCC(n2cccn2)C1 (stereo not given),-7.04
O=C(CCCn1ccnc1)NC1CCCN(c2ccccc2Cl)C1 (stereo not given),0
O=C(NC1CCCCC1)c1cc(Br)cnc1N1CCCCC1,-4.719
CN(Cc1nnc2n1CCC2)C(=O)Cc1ccc2c(c1)CCC2,15.13
Cc1ccc(CS(=O)(=O)N2Cc3c(CN(C)C)nn(C)c3C2)cc1.O=C(O)C(F)(F)F,1.688
COCCC(=O)N1CCCC(c2nc(O)cc(-c3ccncc3)n2)C1 (stereo not given),8.701
COc1ccc(C[C@H]2CN(C(=O)c3ccn(C)n3)CC[C@H]2OC)cc1,2.364
FC(F)(F)c1nc(NC2CCCC2)c2ccccc2n1,-6.133
COCCN(Cc1ccc(F)cc1Cl)C(=O)c1ccc(=O)[nH]n1,-2.464
COCC1CCN(C(=O)c2cccc(S(=O)(=O)NC3CCCC3)c2)C1 (stereo not given),-6.92
c1ccc(Cc2nnc(CN3CCc4cncnc4C3)o2)cc1,9.026
Cc1cnn(CC(C)NCc2ccc(S(C)(=O)=O)cc2)c1 (stereo not given),-23.72 and -24.65 and 6.444
Cc1nnc2n1CCN(Cc1csc(-c3ncccn3)n1)C2,13.35
NC(=O)c1ccc(S(=O)(=O)NC2CCN(Cc3ccccc3)C2=O)cc1 (stereo not given),-5.839
CCN1C(=O)CCC12CCCN(Cc1nccs1)C2.O=C(O)C(F)(F)F (stereo not given),-15.19
O=S1(=O)COCCN1Cc1ccc(Cl)c(F)c1,-1.059
CCOc1ncccc1NC(=O)N1CCCN(C(=O)OC)CC1,0.08937
CC(=O)N[C@@H]1CN(Cc2nnc(-c3ccccc3)o2)C[C@H]1C(C)C,-4.092 and -4.937 and 34.39
Cc1ccc(NC2CCN(C(=O)c3cc(C(N)=O)cs3)CC2)nn1,-1.225
CC(C)c1nccn1C1CCCN(C(=O)c2cccc3[nH]ncc23)C1 (stereo not given),-12.71
CNc1cc(C2CCCN2S(=O)(=O)c2cccc(F)c2)ccn1 (stereo not given),12.95
O=C(Nc1cn[nH]c1)c1ccncc1,-0.4303
O=C(Nc1ccc(F)cc1)N(CCC(F)(F)F)C[C@H](O)CO,-11.23
COc1cc(CN2CCn3c(CO)nnc3C2)ccc1OC(C)C.O=C(O)CC(O)(CC(=O)O)C(=O)O,18.38
Cc1nc2ccccc2nc1CN1CCCC1Cn1cccn1 (stereo not given),0.8919
Cc1cc(C(=O)N2CC[C@]3(C[C@@H](OCc4ccccn4)CO3)C2)c(C)o1.O=C(O)C(F)(F)F,4.21
CS(=O)(=O)NCc1cc(=O)n2c(n1)CN(CC1CC1)CCC2.O=C(O)C(F)(F)F,11.98
Cc1cc2nccc(C3CCCN(C(=O)c4cnccn4)C3)n2n1 (stereo not given),-63.8
O=C(c1cnc(-c2ncccn2)s1)N1CCCC1Cn1cccn1 (stereo not given),-2.107
CCCC(C)CN1CCC(n2cc(C3CCCC3)nn2)CC1 (stereo not given),-18.03
CCc1ccc(CNC(=O)NC(C)CN2CCOCC2)s1 (stereo not given),-1.691
COc1ccccc1N1CCN(C(=O)Cn2nc(C)cc2C)CC1(C)C,-3.908
Cc1ccc(C)c(OC(C)C(=O)Nc2cccnc2)c1 (stereo not given),-10.3
CC(C)c1n[nH]c(C2CN(C(=O)c3cccc4cn[nH]c34)CCO2)n1 (stereo not given),1.711
Cc1cc(C)n(CCNCc2cc(-c3ccccc3)c[nH]c2=O)n1,6.341
CC(Nc1cccc(CN2CCOC2=O)c1)C(=O)NC(N)=O (stereo not given),16.75
Cc1noc(C)c1-c1nc(NCCN(C)C)ncc1-c1cnccn1,-0.593
O=C(O)C(F)(F)F.O=C(c1ccco1)N1CCOC2(COCCN(c3ncccn3)C2)C1 (stereo not given),4.253
Cl.Cl.c1cncc(OC[C@@H]2CCC[C@@]23CNCCO3)c1,12.11
COc1cc(NC(=O)c2ccc(CN3CC[C@H](O)C3)cc2)cc(OC)c1,90.3 and 82.4
COCCC(=O)N1CCCC(CCC(=O)NCc2cccc(OC)c2)C1 (stereo not given),0.9516
CCc1nc(C(=O)N2CCCC2)nn1-c1c(Cl)cccc1Cl,6.014
CCc1nc(CN2CCCN(C(=O)CCSC)CC2)cs1,11.11
CC1=Nc2c(c(=O)[nH]n2C2CCOCC2)C(c2cccc(Br)c2)S1 (stereo not given),-23.25
CCCNC(=O)Nc1cc2c(cc1SC)OCCO2,-109.2 and -17.36 and -108.1
COC(=O)C1CCN(C(=O)CN2CCN(c3cccc(C)c3)CC2)CC1,2.9
COc1cc(CNCc2c(C)nn(C)c2N(C)C)ccc1OCCO,6.31
CCn1ccnc1-c1nccn1-c1ccccc1CN1CCOCC1,-14.92
Cc1nccn1C1CCCN(C(=O)COC2CCCC2)C1 (stereo not given),12.14
Cc1nn(C)c2c(N3CCN(C(=O)C4CCC4)CC3)ncnc12,6.14
CCCc1nc(C)c(C(=O)NC2CCN(CC(N)=O)CC2)s1,-2.487
CCn1cnnc1C1CCN(C(=O)c2cnc(C3CC3)s2)CC1,1.562
CC(C)Cc1noc(CN2CCN(C(=O)c3ccccc3F)CC2)n1,2.837
O=C(CCCn1cncn1)NC1(c2ccccc2)CCC1,2.835
CN1CCN(S(C)(=O)=O)Cc2cccnc21,-1.013
CC(C)(C)C(=O)N1CCC(c2nc(O)cc(-c3ccncc3)n2)CC1,6.608
Cc1cc(C)nc(N2CCC(c3c(C(N)=O)sc4ccccc34)C2)n1 (stereo not given),12.59
Cc1cc(NC(=O)NCc2cccnc2OC(C)C)n(C)n1,-0.4773
CNc1cccc(C2CCCN(C(=O)c3coc(C)n3)C2)n1 (stereo not given),14.39
Cc1cc(C)n(CC(C)CNC(=O)[C@@H](C)NC(=O)OC(C)(C)C)n1 (stereo not given in full),-6.877
CC(C)c1noc(CCC(=O)NCC2CCS(=O)(=O)C2)n1 (stereo not given),-10.29
CN(C)C(=O)C1CCN(C2CCN(CC3CC3)CC2)CC1.O=C(O)C(F)(F)F.O=C(O)C(F)(F)F,-4.538
CC(C)CN1CC(C(=O)NCCOc2ccc3c(c2)OCO3)CC1=O (stereo not given),-1.899
Cc1ccc(C(=O)N2CCC3(CCN(C(=O)c4cccnc4)C3)CC2)o1.O=C(O)C(F)(F)F,5.714
Cc1ccc(N2CCCN(C(=O)c3cc(Cl)c[nH]3)CC2)nn1,-16.18
CC(C)Cc1nc(CN2CCc3onc(-c4cccc(F)c4)c3C2)no1,4.769
O=C(CC1CCC2(CC1)CCN(Cc1ccncc1)CC2)N1CCCC1.O=C(O)C(F)(F)F,5.351
O=C(Cn1ccc2ccccc21)NCc1ccc(C(=O)O)cc1,7.328
CN(C(=O)Cn1nc(-c2ccc(F)cc2)ccc1=O)C1CCS(=O)(=O)C1 (stereo not given),-18.38
Cn1cc(CN2CCCn3cnc(COCC4CC4)c3C2)cn1,6.602
CCCc1noc(CCC(=O)N2CCCC2Cn2cc(C)cn2)n1 (stereo not given),-11.55

For reference, 5 entries once more:

structure	effect
O=C(c1cccc2c1OCO2)N1CCCC(n2cccn2)C1 (stereo not given)	-7.04
O=C(NC1CCCCC1)c1cc(Br)cnc1N1CCCCC1	-4.719
CNc1cccc(C2CCCN(C(=O)c3coc(C)n3)C2)n1 (stereo not given)	14.39
CC(C)c1n[nH]c(C2CN(C(=O)c3cccc4cn[nH]c34)CCO2)n1 (stereo not given)	1.711
Cc1cc(CC(C)NC2CCN(CC(C)C)CC2)[nH]n1 (stereo not given)	-10.62